Data: PubChem BioAssay AID504834 (National Center for Advancing Translational Sciences (NCATS), 2011)
In all, about 320,000 compounds went through this assay and about 22,000 (6.9%) were called active. The shares of active, inactive and inconclusive entries below differ from those in the screen. Calls follow the shape of the dose curve; as a rule, active = well fitted inhibition curve with a large enough effect; inconclusive = small, poorly fitted or top-dose-only effect, or another doubt; inactive = no such curve, though single readings can be large or run the other way. Where the call is inconclusive, the potency comes from a doubtful curve fit.

Experiment: Primary qHTS for delayed death inhibitors of the malarial parasite plastid, 96 hour incubation
Conditions: P. falciparum luciferase reporter growth; series mostly up to 28.7 µM; activity change, negative = inhibition: at the top concentration
Summary of the method: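 Two parasite generations (96 h, 37 C, 5% CO2) of compound exposure in infected erythrocytes (0.05% parasitemia, 2% hematocrit). Luciferase-reporter P. falciparum; decreased luminescence indicates inhibited growth, aimed at apicoplast-acting delayed death.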
% is scaled to controls: 0 for no effect and ±100 for the full control effect; potency is read from the fitted curve at half-maximal effect.

Row | SMILES | activity change, negative = inhibition | Potency
1 | CC(C)(C)NC(=S)NNC(=O)c1cccc(Br)c1 | inactive: -7.12% | –
2 | O/N=C(\Cc1cscn1)c1ccc(O)cc1O | – | inconclusive: 4.15 µM [inhibitor, partial curve, poor fit]
3 | Cc1ccc(C)c(COC(=O)c2cc([N+](=O)[O-])ccc2N2CCOCC2)c1 | – | inconclusive: 11.7 µM [inhibitor, single point]
4 | Cc1ccc2occ(/C=N/NC(=O)c3ccccc3Br)c(=O)c2c1 | – | active: 4.65 µM
5 | COc1ccc2c(c1)sc(=N)n2C | – | active: 3.7 µM
6 | Nc1cc(=O)[nH]c(=S)n1-c1ccccc1 | inactive: -11.2% | –
7 | Cn1cnnc1Sc1ccc(CN2CCN(C3CCCC3)C(CCO)C2)o1 (stereo unspecified) | inactive: 1.4% | –
8 | Cc1ccc(NC2CCCN(C(=O)CCC3(C)CC3)C2)cc1C (stereo unspecified) | – | inconclusive: 2.62 µM [inhibitor, full curve, poor fit]
9 | NC(=O)c1cccc2c1C(=O)N(C1CCCCC1)C2 | – | active: 9.28 µM
10 | Cc1[nH]n(-c2ccccc2)c(=O)c1N=Nc1nccs1 | – | inconclusive: 3.7 µM [inhibitor, full curve]
11 | COc1cc2c(cc1OC)C(c1cccs1)N(C(=O)c1ccc(S(=O)(=O)N(C)C)cc1)CC2 (stereo unspecified) | – | active: 13.1 µM
12 | Cc1cc([N+](=O)[O-])ccc1NC(=O)C(C)N1CCN(c2ccccn2)CC1 (stereo unspecified) | – | inconclusive: 9.28 µM [inhibitor, partial curve, poor fit]
13 | COc1ccc(OC)c(/C=N\NC(=O)c2ccc(-c3ccccc3)cc2)c1 | – | inconclusive: 10.4 µM [inhibitor, single point]
14 | CCOC(=O)N1CCN(C(=O)Cn2ccc3ccccc3c2=O)CC1 | – | inconclusive: 18.5 µM [inhibitor, single point]
15 | O=C(OC1CCCCC1)c1ccc2c(c1)C1C=CCC1C(C(=O)O)N2 (stereo unspecified) | – | inconclusive: 8.28 µM [inhibitor, partial curve, poor fit]
16 | COc1ccc(/C=N/c2oc(-c3ccccc3)cc2C#N)cc1 | inactive: -4.73% | –
17 | CCN1CCN(CCCNC(=O)c2ccc3c(c2)NC(=O)/C(=C\c2cccc(C)c2)S3)CC1 | inactive: -25.9% | –
18 | CCCCC(=O)N1CC(=O)Nc2ccc(F)cc2C1c1ccccc1 (stereo unspecified) | – | inconclusive: 0.0928 µM [inhibitor, full curve, poor fit]
19 | COc1nc(-c2ccc(C)cc2)ccc1-c1noc(-c2cccnc2)n1 | – | active: 11.7 µM
20 | COc1ccc(-c2cc(C(=O)NCCCn3ccnc3)no2)cc1 | – | active: 8.28 µM
21 | COc1ccc(S(=O)(=O)N(CC(=O)NCc2cccnc2)c2ccc(F)cc2)cc1OC | – | inconclusive: 11.7 µM [inhibitor, single point]

Entries from the list above that contain a furan ring, fused or not:
Row | SMILES | activity change, negative = inhibition | Potency
7 | Cn1cnnc1Sc1ccc(CN2CCN(C3CCCC3)C(CCO)C2)o1 (stereo unspecified) | inactive: 1.4% | –
16 | COc1ccc(/C=N/c2oc(-c3ccccc3)cc2C#N)cc1 | inactive: -4.73% | –
